# Data from the supplement of paper PMC8728848.
# The other results are listed elsewhere or left out.
# What was measured:
# Experiment in all cases: glycan array binding signal (z-score within array); higher = stronger binding
# Details in all cases: glycan notation: IUPAC condensed, linker removed
# [1] = molecular target: Gal(b1-4)GlcNAc(b1-2)[Gal(b1-4)GlcNAc(b1-6)]Man(a1-6)[GlcNAc(b1-4)][Gal(b1-4)GlcNAc(b1-2)Man(a1-3)]Man(b1-4)GlcNAc(b1-4)GlcNAc
# In short: (§1)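 Arrays were curated from the Consortium for Functional Glycomics database, 3228 in total, and kept only where the protein sequence was available. Binding is expressed as a within-array Z-score. This score was averaged across arrays of the same protein sequence at different concentrations or buffers and across linkers, and negative values can be read as non-binding.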
# [2] = molecular target: Gal(b1-4)GlcNAc(b1-2)[Gal(b1-4)GlcNAc(b1-6)]Man(a1-6)[GlcNAc(b1-4)][Gal(b1-4)GlcNAc(b1-2)[Gal(b1-4)GlcNAc(b1-4)]Man(a1-3)]Man(b1-4)GlcNAc(b1-4)[Fuc(a1-6)]GlcNAc
# In short: as §1
# [3] = molecular target: Gal(b1-4)GlcNAc(b1-3)Gal(b1-3)GalNAc
# In short: as §1
# [4] = molecular target: Gal(b1-4)GlcNAc(b1-3)Gal(b1-3)GlcNAc
# In short: as §1
# [5] = molecular target: Gal(b1-4)GlcNAc(b1-3)Gal(b1-4)Glc
# In short: as §1
# [6] = molecular target: Gal(b1-4)GlcNAc(b1-3)Gal(b1-4)GlcNAc
# In short: as §1
# [7] = molecular target: Gal(b1-4)GlcNAc(b1-3)Gal(b1-4)GlcNAc(b1-2)Man(a1-3)[Gal(b1-4)GlcNAc(b1-3)Gal(b1-4)GlcNAc(b1-2)Man(a1-6)]Man(b1-4)GlcNAc(b1-4)GlcNAc
# In short: as §1
# [8] = molecular target: Gal(b1-4)GlcNAc(b1-3)Gal(b1-4)GlcNAc(b1-2)Man(a1-3)[Gal(b1-4)GlcNAc(b1-3)Gal(b1-4)GlcNAc(b1-2)Man(a1-6)]Man(b1-4)GlcNAc(b1-4)[Fuc(a1-6)]GlcNAc
# In short: as §1
# [9] = molecular target: Gal(b1-4)GlcNAc(b1-3)Gal(b1-4)GlcNAc(b1-2)[Gal(b1-4)GlcNAc(b1-3)Gal(b1-4)GlcNAc(b1-6)]Man(a1-6)[Gal(b1-4)GlcNAc(b1-3)Gal(b1-4)GlcNAc(b1-2)Man(a1-3)]Man(b1-4)GlcNAc(b1-4)GlcNAc
# In short: as §1
# [10] = molecular target: Gal(b1-4)GlcNAc(b1-3)Gal(b1-4)GlcNAc(b1-2)[Gal(b1-4)GlcNAc(b1-3)Gal(b1-4)GlcNAc(b1-6)]Man(a1-6)[Gal(b1-4)GlcNAc(b1-3)Gal(b1-4)GlcNAc(b1-2)Man(a1-3)]Man(b1-4)GlcNAc(b1-4)[Fuc(a1-6)]GlcNAc
# In short: as §1
# [11] = molecular target: Gal(b1-4)GlcNAc(b1-3)Gal(b1-4)GlcNAc(b1-3)Gal(b1-4)GlcNAc
# In short: as §1
# [12] = molecular target: Gal(b1-4)GlcNAc(b1-3)Gal(b1-4)GlcNAc(b1-3)Gal(b1-4)GlcNAc(b1-2)Man(a1-3)[Gal(b1-4)GlcNAc(b1-3)Gal(b1-4)GlcNAc(b1-3)Gal(b1-4)GlcNAc(b1-2)Man(a1-6)]Man(b1-4)GlcNAc(b1-4)GlcNAc
# In short: as §1
# [13] = molecular target: Gal(b1-4)GlcNAc(b1-3)Gal(b1-4)GlcNAc(b1-3)Gal(b1-4)GlcNAc(b1-2)Man(a1-3)[Gal(b1-4)GlcNAc(b1-3)Gal(b1-4)GlcNAc(b1-3)Gal(b1-4)GlcNAc(b1-2)Man(a1-6)]Man(b1-4)GlcNAc(b1-4)[Fuc(a1-6)]GlcNAc
# In short: as §1
# [14] = molecular target: Gal(b1-4)GlcNAc(b1-3)Gal(b1-4)GlcNAc(b1-3)Gal(b1-4)GlcNAc(b1-2)[Gal(b1-4)GlcNAc(b1-3)Gal(b1-4)GlcNAc(b1-3)Gal(b1-4)GlcNAc(b1-6)]Man(a1-6)[Gal(b1-4)GlcNAc(b1-3)Gal(b1-4)GlcNAc(b1-3)Gal(b1-4)GlcNAc(b1-2)Man(a1-3)]Man(b1-4)GlcNAc(b1-4)[Fuc(a1-6)]GlcNAc
# In short: as §1
# [15] = molecular target: Gal(b1-4)GlcNAc(b1-3)Gal(b1-4)GlcNAc(b1-3)Gal(b1-4)GlcNAc(b1-3)Gal(b1-4)GlcNAc(b1-2)Man(a1-3)[Gal(b1-4)GlcNAc(b1-3)Gal(b1-4)GlcNAc(b1-3)Gal(b1-4)GlcNAc(b1-3)Gal(b1-4)GlcNAc(b1-2)Man(a1-6)]Man(b1-4)GlcNAc(b1-4)GlcNAc
# In short: as §1
# [16] = molecular target: Gal(b1-4)GlcNAc(b1-3)Gal(b1-4)GlcNAc(b1-3)Gal(b1-4)GlcNAc(b1-3)Gal(b1-4)GlcNAc(b1-2)Man(a1-3)[Gal(b1-4)GlcNAc(b1-3)Gal(b1-4)GlcNAc(b1-3)Gal(b1-4)GlcNAc(b1-3)Gal(b1-4)GlcNAc(b1-2)Man(a1-6)]Man(b1-4)GlcNAc(b1-4)[Fuc(a1-6)]GlcNAc
# In short: as §1
# [17] = molecular target: Gal(b1-4)GlcNAc(b1-3)Gal(b1-4)GlcNAc(b1-3)Gal(b1-4)GlcNAc(b1-3)Gal(b1-4)GlcNAc(b1-2)[Gal(b1-4)GlcNAc(b1-3)Gal(b1-4)GlcNAc(b1-3)Gal(b1-4)GlcNAc(b1-3)Gal(b1-4)GlcNAc(b1-6)]Man(a1-6)[Gal(b1-4)GlcNAc(b1-3)Gal(b1-4)GlcNAc(b1-3)Gal(b1-4)GlcNAc(b1-3)Gal(b1-4)GlcNAc(b1-2)Man(a1-3)]Man(b1-4)GlcNAc(b1-4)[Fuc(a1-6)]GlcNAc
# In short: as §1
# [18] = molecular target: Gal(b1-4)GlcNAc(b1-3)Gal(b1-4)GlcNAc(b1-3)Gal(b1-4)GlcNAc(b1-3)Gal(b1-4)GlcNAc(b1-3)Gal(b1-4)GlcNAc(b1-2)Man(a1-3)[Gal(b1-4)GlcNAc(b1-3)Gal(b1-4)GlcNAc(b1-3)Gal(b1-4)GlcNAc(b1-3)Gal(b1-4)GlcNAc(b1-3)Gal(b1-4)GlcNAc(b1-2)Man(a1-6)]Man(b1-4)GlcNAc(b1-4)GlcNAc
# In short: as §1
# [19] = molecular target: Gal(b1-4)GlcNAc(b1-3)Gal(b1-4)GlcNAc(b1-3)Gal(b1-4)GlcNAc(b1-3)Gal(b1-4)GlcNAc(b1-3)Gal(b1-4)GlcNAc(b1-2)Man(a1-3)[Gal(b1-4)GlcNAc(b1-3)Gal(b1-4)GlcNAc(b1-3)Gal(b1-4)GlcNAc(b1-3)Gal(b1-4)GlcNAc(b1-3)Gal(b1-4)GlcNAc(b1-2)Man(a1-6)]Man(b1-4)GlcNAc(b1-4)[Fuc(a1-6)]GlcNAc
# In short: as §1
# [20] = molecular target: Gal(b1-4)GlcNAc(b1-3)Gal(b1-4)GlcNAc(b1-3)Gal(b1-4)GlcNAc(b1-3)Gal(b1-4)GlcNAc(b1-3)Gal(b1-4)GlcNAc(b1-2)[Gal(b1-4)GlcNAc(b1-3)Gal(b1-4)GlcNAc(b1-3)Gal(b1-4)GlcNAc(b1-3)Gal(b1-4)GlcNAc(b1-3)Gal(b1-4)GlcNAc(b1-6)]Man(a1-6)[Gal(b1-4)GlcNAc(b1-3)Gal(b1-4)GlcNAc(b1-3)Gal(b1-4)GlcNAc(b1-3)Gal(b1-4)GlcNAc(b1-3)Gal(b1-4)GlcNAc(b1-2)Man(a1-3)]Man(b1-4)GlcNAc(b1-4)[Fuc(a1-6)]GlcNAc
# In short: as §1
# [21] = molecular target: Gal(b1-4)GlcNAc(b1-3)Gal(b1-4)GlcNAc(b1-3)Gal(b1-4)GlcNAc(b1-3)Gal(b1-4)GlcNAc(b1-3)Gal(b1-4)GlcNAc(b1-3)Gal(b1-4)GlcNAc(b1-2)Man(a1-3)[Gal(b1-4)GlcNAc(b1-3)Gal(b1-4)GlcNAc(b1-3)Gal(b1-4)GlcNAc(b1-3)Gal(b1-4)GlcNAc(b1-3)Gal(b1-4)GlcNAc(b1-3)Gal(b1-4)GlcNAc(b1-2)Man(a1-6)]Man(b1-4)GlcNAc(b1-4)GlcNAc
# In short: as §1
# [22] = molecular target: Gal(b1-4)GlcNAc(b1-3)Gal(b1-4)GlcNAc(b1-3)GalNAc
# In short: as §1
# [23] = molecular target: Gal(b1-4)GlcNAc(b1-3)Gal(b1-4)GlcNAc(b1-3)[Gal(b1-4)GlcNAc(b1-3)Gal(b1-4)GlcNAc(b1-6)]GalNAc
# In short: as §1
binder,measurement,setting,value
pilr alpha (protein) MLYGVTQPKHLSASMGGSVEIPFSFYYPWELATAPDVRISWRRGHFHRQSFYSTRPPSIHKDYVNRLFLNWTEGQKSGFLRISNLQKQDQSVYFCRVELDTRSSGRQQWQSIEGTKLSIT,glycan array binding signal (z-score),[1],0.049
same,glycan array binding signal (z-score),[2],0.011
same,glycan array binding signal (z-score),[3],-0.279
same,glycan array binding signal (z-score),[4],-0.421
same,glycan array binding signal (z-score),[5],-0.15
same,glycan array binding signal (z-score),[6],-0.268
same,glycan array binding signal (z-score),[7],1.41
same,glycan array binding signal (z-score),[8],0.273
same,glycan array binding signal (z-score),[9],-0.209
same,glycan array binding signal (z-score),[10],0.377
same,glycan array binding signal (z-score),[11],-0.614
same,glycan array binding signal (z-score),[12],0.361
same,glycan array binding signal (z-score),[13],0.208
same,glycan array binding signal (z-score),[14],0.388
same,glycan array binding signal (z-score),[15],0.167
same,glycan array binding signal (z-score),[16],0.569
same,glycan array binding signal (z-score),[17],2.72
same,glycan array binding signal (z-score),[18],0.101
same,glycan array binding signal (z-score),[19],0.421
same,glycan array binding signal (z-score),[20],1.59
same,glycan array binding signal (z-score),[21],0.681
same,glycan array binding signal (z-score),[22],-0.204
same,glycan array binding signal (z-score),[23],0.527
